From the supplement of paper PMC10373366
The list shows a part of the results. Most values come without repeats; read them as rough.

Key:
A2780 = test: cell growth inhibition ratio vs untreated control (CCK8); higher = stronger inhibition of cell viability; details: 10 µM; 48 h
Procedure: (§1)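 Natural product library (Topscience) screened at 10 µM final concentration for 48 h on ovarian cancer A2780 cells and patient-derived ovarian cancer cells (PDC) in 96-well plates; viability read by CCK8 and reported as inhibition ratio (%) relative to untreated control. Single-dose primary screen.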

[1] = tested on: patient-derived ovarian cancer cells (PDC); test: as above; details: 10 µM; 48 h
Procedure: as §1

Structure (SMILES)	cell growth inhibition ratio (A2780) [%]	cell growth inhibition ratio [1] [%]
O=c1ccc2cc(O)c(O)cc2o1 [Esculetin]	4.61	7.95
CC1(C)C(O[C@@H]2OC[C@@H](O)[C@H](O)[C@H]2O)CC[C@]23CC24CC[C@]2(C)[C@@H]([C@@]5(C)CC[C@@H](C(C)(C)O)O5)[C@H](O)C[C@@]2(C)C4C[C@@H](O[C@@H]2O[C@H](CO)[C@@H](O)[C@H](O)[C@H]2O)C13 (stereo not given in full) [Astragaloside IV]	8.4	5.58
COc1cc(/C=C/C(=O)CC(=O)/C=C/c2ccc(O)c(OC)c2)ccc1O [Curcumin]	18.9	-3.58
COc1c2occc2cc2ccc(=O)oc12 [8-Methoxypsoralen]	2.14	-5.15
CC(=O)O[C@H]1C(=O)[C@@]2(C)[C@H]([C@H](OC(=O)c3ccccc3)[C@]3(O)C[C@H](OC(=O)[C@H](O)[C@@H](NC(=O)c4ccccc4)c4ccccc4)C(C)=C1C3(C)C)[C@]1(OC(C)=O)CO[C@@H]1C[C@@H]2O [Paclitaxel]	83.5	71.7
CC1(C)CC[C@]2(C(=O)O)CC[C@]3(C)C(=CC[C@@H]4[C@@]5(C)CC[C@H](O[C@@H]6O[C@H](C(=O)O)[C@@H](O)[C@H](O[C@@H]7OC[C@@H](O)[C@H](O)[C@H]7O)[C@H]6O)C(C)(C)[C@@H]5CC[C@]43C)[C@@H]2C1 [Momordin Ic]	12.2	3.26
CC1=C(/C=C/C(C)=C/C=C/C(C)=C/C(=O)O)C(C)(C)CCC1 [Tretinoin]	-14.9	13.5
O=c1ccc2ccccc2o1 [Coumarin]	1.76	-4.33
COC(=O)c1ccc(O)c(OC)c1 [Methyl Vanillate]	-0.832	16.9
CC(=O)N[C@H]1[C@H]([C@H](O)[C@H](O)CO)OC(O)(C(=O)O)C[C@@H]1O (stereo not given in full) [N-Acetylneuraminic acid]	-5.35	-0.261
